No constants are given. Whether binding was seen depends on the method and setting. In cells and extracts the contact can be indirect. These calls come from enrichment with a bait or labelling near it, and not all partners need be listed. Where a sequence is shown, tags or fusion partners need not be part of it.
Legend:
Test in all cases: affinity purification with mass spectrometry; GFP pulldown with GFP Tag Immunomagnetic Beads from lysates of HEK-293 Flp-In T-REx cells expressing EGFP, EGFP-MAB21L1 or mutant EGFP-MAB21L1 after 12 hrs of 1 μg/ml tetracycline; three biological replicates; MaxQuant
[1] = target: T1, GFP-tagged MAB21L1 Arg51Gln (human) (UniProt Q13394)
T1 sequence: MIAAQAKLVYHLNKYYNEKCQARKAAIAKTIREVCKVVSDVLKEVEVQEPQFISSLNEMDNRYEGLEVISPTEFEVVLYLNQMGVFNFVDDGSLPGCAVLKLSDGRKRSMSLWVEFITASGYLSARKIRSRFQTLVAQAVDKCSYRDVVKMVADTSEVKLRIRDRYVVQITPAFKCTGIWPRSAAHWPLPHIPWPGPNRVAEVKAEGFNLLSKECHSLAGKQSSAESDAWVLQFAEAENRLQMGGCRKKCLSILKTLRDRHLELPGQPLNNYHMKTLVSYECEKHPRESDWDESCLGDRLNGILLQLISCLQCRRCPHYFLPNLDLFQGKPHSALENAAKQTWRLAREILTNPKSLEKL

[2] = target: T2, GFP-tagged wild-type MAB21L1 (human) (UniProt Q13394)
T2 sequence: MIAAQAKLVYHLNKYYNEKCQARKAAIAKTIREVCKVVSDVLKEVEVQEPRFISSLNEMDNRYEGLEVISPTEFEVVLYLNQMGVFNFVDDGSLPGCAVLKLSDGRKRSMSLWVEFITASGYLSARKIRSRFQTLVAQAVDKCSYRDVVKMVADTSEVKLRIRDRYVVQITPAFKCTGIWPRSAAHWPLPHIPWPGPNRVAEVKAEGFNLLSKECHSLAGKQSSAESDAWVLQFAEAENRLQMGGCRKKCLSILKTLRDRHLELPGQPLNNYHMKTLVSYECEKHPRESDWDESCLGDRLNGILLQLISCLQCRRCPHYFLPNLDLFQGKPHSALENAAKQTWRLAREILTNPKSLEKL

[3] = target: T3, GFP-tagged MAB21L1 Arg51Leu (human) (UniProt Q13394)
T3 sequence: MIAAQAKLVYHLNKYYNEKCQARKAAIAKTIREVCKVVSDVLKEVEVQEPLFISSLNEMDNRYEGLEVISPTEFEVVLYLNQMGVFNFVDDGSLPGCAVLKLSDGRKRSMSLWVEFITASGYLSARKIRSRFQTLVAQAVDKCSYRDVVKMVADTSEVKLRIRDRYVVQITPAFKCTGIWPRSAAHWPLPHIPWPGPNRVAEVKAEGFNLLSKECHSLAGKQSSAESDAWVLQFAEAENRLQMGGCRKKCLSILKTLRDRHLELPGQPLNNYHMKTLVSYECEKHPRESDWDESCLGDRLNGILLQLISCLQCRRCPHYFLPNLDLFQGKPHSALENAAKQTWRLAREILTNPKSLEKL

Measured: binding

B1: EIF2A (protein, UniProt Q9BY44 1-585)
chain: MAPSTPLLTVRGSEGLYMVNGPPHFTESTVFPRESGKNCKVCIFSKDGTLFAWGNGEKVNIISVTNKGLLHSFDLLKAVCLEFSPKNTVLATWQPYTTSKDGTAGIPNLQLYDVKTGTCLKSFIQKKMQNWCPSWSEDETLCARNVNNEVHFFENNNFNTIANKLHLQKINDFVLSPGPQPYKVAVYVPGSKGAPSFVRLYQYPNFAGPHAALANKSFFKADKVTMLWNKKATAVLVIASTDVDKTGASYYGEQTLHYIATNGESAVVQLPKNGPIYDVVWNSSSTEFCAVYGFMPAKATIFNLKCDPVFDFGTGPRNAAYYSPHGHILVLAGFGNLRGQMEVWDVKNYKLISKPVASDSTYFAWCPDGEHILTATCAPRLRVNNGYKIWHYTGSILHKYDVPSNAELWQVSWQPFLDGIFPAKTITYQAVPSEVPNEEPKVATAYRPPALRNKPITNSKLHEEEPPQNMKPQSGNDKPLSKTALKNQRKHEAKKAAKQEARSDKSPDLAPTPAPQSTPRNTVSQSISGDPEIDKKIKNLKKKLKAIEQLKEQAATGKQLEKNQLEKIQKETALLQELEDLELGI
binds: [1] | [2] | [3]

B2: JAGN1 (protein, UniProt Q8N5M9 1-183)
chain: MASRAGPRAAGTDGSDFQHRERVAMHYQMSVTLKYEIKKLIYVHLVIWLLLVAKMSVGHLRLLSHDQVAMPYQWEYPYLLSILPSLLGLLSFPRNNISYLVLSMISMGLFSIAPLIYGSMEMFPAAQQLYRHGKAYRFLFGFSAVSIMYLVLVLAVQVHAWQLYYSKKLLDSWFTSTQEKKHK
binds: [1] | [2] | [3]

B3: HMGCS1 (protein, UniProt Q01581 1-520)
chain: MPGSLPLNAEACWPKDVGIVALEIYFPSQYVDQAELEKYDGVDAGKYTIGLGQAKMGFCTDREDINSLCMTVVQNLMERNNLSYDCIGRLEVGTETIIDKSKSVKTNLMQLFEESGNTDIEGIDTTNACYGGTAAVFNAVNWIESSSWDGRYALVVAGDIAVYATGNARPTGGVGAVALLIGPNAPLIFERGLRGTHMQHAYDFYKPDMLSEYPIVDGKLSIQCYLSALDRCYSVYCKKIHAQWQKEGNDKDFTLNDFGFMIFHSPYCKLVQKSLARMLLNDFLNDQNRDKNSIYSGLEAFGDVKLEDTYFDRDVEKAFMKASSELFSQKTKASLLVSNQNGNMYTSSVYGSLASVLAQYSPQQLAGKRIGVFSYGSGLAATLYSLKVTQDATPGSALDKITASLCDLKSRLDSRTGVAPDVFAENMKLREDTHHLVNYIPQGSIDSLFEGTWYLVRVDEKHRRTYARRPTPNDDTLDEGVGLVHSNIATEHIPSPAKKVPRLPATAAEPEAAVISNGEH
binds: [1] | [2] | [3]

B4: RIOK3 (protein, UniProt O14730 1-519)
chain: MDLVGVASPEPGTAAAWGPSKCPWAIPQNTISCSLADVMSEQLAKELQLEEEAAVFPEVAVAEGPFITGENIDTSSDLMLAQMLQMEYDREYDAQLRREEKKFNGDSKVSISFENYRKVHPYEDSDSSEDEVDWQDTRDDPYRPAKPVPTPKKGFIGKGKDITTKHDEVVCGRKNTARMENFAPEFQVGDGIGMDLKLSNHVFNALKQHAYSEERRSARLHEKKEHSTAEKAVDPKTRLLMYKMVNSGMLETITGCISTGKESVVFHAYGGSMEDEKEDSKVIPTECAIKVFKTTLNEFKNRDKYIKDDFRFKDRFSKLNPRKIIRMWAEKEMHNLARMQRAGIPCPTVVLLKKHILVMSFIGHDQVPAPKLKEVKLNSEEMKEAYYQTLHLMRQLYHECTLVHADLSEYNMLWHAGKVWLIDVSQSVEPTHPHGLEFLFRDCRNVSQFFQKGGVKEALSERELFNAVSGLNITADNEADFLAEIEALEKMNEDHVQKNGRKAASFLKDDGDPPLLYDE
binds: [1] | [2] | [3]

B5: ZNF281 (protein, UniProt Q9Y2X9 1-895)
chain: MKIGSGFLSGGGGTGSSGGSGSGGGGSGGGGGGGSSGRRAEMEPTFPQGMVMFNHRLPPVTSFTRPAGSAAPPPQCVLSSSTSAAPAAEPPPPPAPDMTFKKEPAASAAAFPSQRTSWGFLQSLVSIKQEKPADPEEQQSHHHHHHHHYGGLFAGAEERSPGLGGGEGGSHGVIQDLSILHQHVQQQPAQHHRDVLLSSSSRTDDHHGTEEPKQDTNVKKAKRPKPESQGIKAKRKPSASSKPSLVGDGEGAILSPSQKPHICDHCSAAFRSSYHLRRHVLIHTGERPFQCSQCSMGFIQKYLLQRHEKIHSREKPFGCDQCSMKFIQKYHMERHKRTHSGEKPYKCDTCQQYFSRTDRLLKHRRTCGEVIVKGATSAEPGSSNHTNMGNLAVLSQGNTSSSRRKTKSKSIAIENKEQKTGKTNESQISNNINMQSYSVEMPTVSSSGGIIGTGIDELQKRVPKLIFKKGSRKNTDKNYLNFVSPLPDIVGQKSLSGKPSGSLGIVSNNSVETIGLLQSTSGKQGQISSNYDDAMQFSKKRRYLPTASSNSAFSINVGHMVSQQSVIQSAGVSVLDNEAPLSLIDSSALNAEIKSCHDKSGIPDEVLQSILDQYSNKSESQKEDPFNIAEPRVDLHTSGEHSELVQEENLSPGTQTPSNDKASMLQEYSKYLQQAFEKSTNASFTLGHGFQFVSLSSPLHNHTLFPEKQIYTTSPLECGFGQSVTSVLPSSLPKPPFGMLFGSQPGLYLSALDATHQQLTPSQELDDLIDSQKNLETSSAFQSSSQKLTSQKEQKNLESSTGFQIPSQELASQIDPQKDIEPRTTYQIENFAQAFGSQFKSGSRVPMTFITNSNGEVDHRVRTSVSDFSGYTNMMSDVSEPCSTRVKTPTSQSYR
binds: [1] | [2] | [3]

B6: GLMN (protein, UniProt Q92990 1-594)
chain: MAVEELQSIIKRCQILEEQDFKEEDFGLFQLAGQRCIEEGHTDQLLEIIQNEKNKVIIKNMGWNLVGPVVRCLLCKDKEDSKRKVYFLIFDLLVKLCNPKELLLGLLELIEEPSGKQISQSILLLLQPLQTVIQKLHNKAYSIGLALSTLWNQLSLLPVPYSKEQIQMDDYGLCQCCKALIEFTKPFVEEVIDNKENSLENEKLKDELLKFCFKSLKCPLLTAQFFEQSEEGGNDPFRYFASEIIGFLSAIGHPFPKMIFNHGRKKRTWNYLEFEEEENKQLADSMASLAYLVFVQGIHIDQLPMVLSPLYLLQFNMGHIEVFLQRTEESVISKGLELLENSLLRIEDNSLLYQYLEIKSFLTVPQGLVKVMTLCPIETLRKKSLAMLQLYINKLDSQGKYTLFRCLLNTSNHSGVEAFIIQNIKNQIDMSLKRTRNNKWFTGPQLISLLDLVLFLPEGAETDLLQNSDRIMASLNLLRYLVIKDNENDNQTGLWTELGNIENNFLKPLHIGLNMSKAHYEAEIKNSQEAQKSKDLCSITVSGEEIPNMPPEMQLKVLHSALFTFDLIESVLARVEELIEIKTKSTSEENIGIK
binds: [1] | [2] | [3]

B7: PYCR2 (protein, UniProt Q96C36 1-320)
chain: MSVGFIGAGQLAYALARGFTAAGILSAHKIIASSPEMNLPTVSALRKMGVNLTRSNKETVKHSDVLFLAVKPHIIPFILDEIGADVQARHIVVSCAAGVTISSVEKKLMAFQPAPKVIRCMTNTPVVVQEGATVYATGTHALVEDGQLLEQLMSSVGFCTEVEEDLIDAVTGLSGSGPAYAFMALDALADGGVKMGLPRRLAIQLGAQALLGAAKMLLDSEQHPCQLKDNVCSPGGATIHALHFLESGGFRSLLINAVEASCIRTRELQSMADQEKISPAALKKTLLDRVKLESPTVSTLTPSSPGKLLTRSLALGGKKD
binds: [1] | [2] | [3]

B8: HAUS5 (protein, UniProt O94927 1-633)
chain: MELAQEARELGCWAVEEMGVPVAARAPESTLRRLCLGQGADIWAYILQHVHSQRTVKKIRGNLLWYGHQDSPQVRRKLELEAAVTRLRAEIQELDQSLELMERDTEAQDTAMEQARQHTQDTQRRALLLRAQAGAMRRQQHTLRDPMQRLQNQLRRLQDMERKAKVDVTFGSLTSAALGLEPVVLRDVRTACTLRAQFLQNLLLPQAKRGSLPTPHDDHFGTSYQQWLSSVETLLTNHPPGHVLAALEHLAAEREAEIRSLCSGDGLGDTEISRPQAPDQSDSSQTLPSMVHLIQEGWRTVGVLVSQRSTLLKERQVLTQRLQGLVEEVERRVLGSSERQVLILGLRRCCLWTELKALHDQSQELQDAAGHRQLLLRELQAKQQRILHWRQLVEETQEQVRLLIKGNSASKTRLCRSPGEVLALVQRKVVPTFEAVAPQSRELLRCLEEEVRHLPHILLGTLLRHRPGELKPLPTVLPSIHQLHPASPRGSSFIALSHKLGLPPGKASELLLPAAASLRQDLLLLQDQRSLWCWDLLHMKTSLPPGLPTQELLQIQASQEKQQKENLGQALKRLEKLLKQALERIPELQGIVGDWWEQPGQAALSEELCQGLSLPQWRLRWVQAQGALQKLCS
binds: [1] | [2] | [3]

— publication PMC9681113
